# From PubChem BioAssay AID2685 (National Center for Advancing Translational Sciences (NCATS), 2010)
# This is one part of the list. Shown are side measurements of this screen, not its main read-out; they come without a call. The list favours compounds with an active or inconclusive main result. Words in brackets tell the shape of the fitted curve; partial curves, single points and poor fits give uncertain potencies.
# Assay: qHTS Assay for Lipid Storage Modulators in Drosophila S3 Cells;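 as to cell number change: cells counted by Cell Tracker Red CMTPX staining in the red channel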
# Conditions: BODIPY lipid droplet fluorescence, 18-24 h; for cell number change: measured here: cell count max response, cells fed with added oleic acid
# Outline: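 Drosophila S3 cells got compounds at several concentrations plus oleic acid (400 uM solution). Laser-scanning cytometry with 488 nm excitation read lipid droplets at 500-530 nm and cells at 575-640 nm. Percent activity was relative to 20 uM Triacsin C.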
# [1] = measured here: lipid fluorescence (Fed channel) AC50, cells fed with added oleic acid
# [2] = measured here: cell number channel AC50, cells fed with added oleic acid
Compound,cell number change [%],AC50 [1],AC50 [2]
Cc1ccc2c(c1)c(C)cc(=O)n2CCC(=O)O,0.225,"0.146 µM [rising, full curve, poor fit]",–
CCCN(C(=O)COC(=O)CSc1ccc(C(N)=O)cc1[N+](=O)[O-])C1CCS(=O)(=O)C1 (stereo unspecified),–,–,"0.082 µM [falling, full curve, poor fit]"
O=C(Nc1nc2c(s1)CCCC2)c1cc(-c2ccc3c(c2)OCO3)nc2ccccc12,–,"29.1 µM [rising, single point]",–
CCCCOc1ccc(/C(O)=C(\C#N)c2nc3ccccc3[nH]2)cc1,32.7,–,"32.6 µM [rising, partial curve, poor fit]"
COCCNC(=O)C(NC(=O)C1CCC(C)CC1)C(C)C (stereo unspecified),-44,"29.1 µM [falling, single point]",–
Cc1cc(/C=C2\C(=N)N3N=C(CC(=O)N4CCOCC4)SC3=NC2=O)c(C)n1-c1ccccc1,29.5,"1.16 µM [rising, full curve]","0.326 µM [rising, full curve]"
Clc1ccc2c(NNc3ccccc3Cl)ccnc2c1,-3.22,"0.731 µM [falling, partial curve, poor fit]",–
O=C(Nc1cccc(S(=O)(=O)N2CCCCC2)c1)c1cnccn1,27.9,–,"4.11 µM [rising, full curve, poor fit]"
O=C1c2oc3ccc(Cl)cc3c(=O)c2C(c2cccc(Br)c2)N1CCO (stereo unspecified),43,"16.4 µM [rising, partial curve]","23.1 µM [rising, single point]"
O=C(c1cccc([N+](=O)[O-])c1)N1CCCC(C(=O)N2CCN(c3ccccc3)CC2)C1 (stereo unspecified),-9.12,–,–
O=C1CC(NNc2ccccc2)C(=O)N1c1ccccc1 (stereo unspecified),-2.66,–,–
CC(=O)N1c2ccc(S(=O)(=O)N3CCC(C(=O)NC4CCCCC4)CC3)cc2CC1C (stereo unspecified),–,"29.1 µM [rising, single point]",–
Clc1ccc(-c2cn(-c3ccccc3)c3[n+]2CCS3)cc1,6.26,"0.103 µM [falling, full curve, poor fit]",–
COc1ccc(Cl)cc1NC(=O)Nn1cnnc1,55.1,–,"29.1 µM [rising, single point]"
O=C(CCC1CCCN(C(=O)c2ccoc2)C1)NCc1ccc(F)c(F)c1 (stereo unspecified),-16.7,"0.0058 µM [falling, full curve, poor fit]",–
NC(=O)c1ccccc1NC(=O)COc1ccc2c(c1)OCO2,8.56,"11.6 µM [rising, single point]",–
COc1ccccc1C(=O)C1CCCN(C(=O)c2cccc(Cn3cccn3)c2)C1 (stereo unspecified),-21.7,"0.00651 µM [falling, full curve, poor fit]",–

# 5 of these compounds, reformatted:
Compound	cell number change [%]	AC50 [1]	AC50 [2]
O=C(Nc1cccc(S(=O)(=O)N2CCCCC2)c1)c1cnccn1	27.9	–	4.11 µM [rising, full curve, poor fit]
O=C1c2oc3ccc(Cl)cc3c(=O)c2C(c2cccc(Br)c2)N1CCO (stereo unspecified)	43	16.4 µM [rising, partial curve]	23.1 µM [rising, single point]
O=C(c1cccc([N+](=O)[O-])c1)N1CCCC(C(=O)N2CCN(c3ccccc3)CC2)C1 (stereo unspecified)	-9.12	–	–
O=C1CC(NNc2ccccc2)C(=O)N1c1ccccc1 (stereo unspecified)	-2.66	–	–
CC(=O)N1c2ccc(S(=O)(=O)N3CCC(C(=O)NC4CCCCC4)CC3)cc2CC1C (stereo unspecified)	–	29.1 µM [rising, single point]	–
